In the supplement of paper PMC6078165:
± gives the standard deviation of the averaged measurements. The reference is the same well before dosing, and untreated signal decays as well.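 Fibroblast labels denote human fibroblasts, mainly primary ones from uterus (C12385, HUF), lung (H6013), bone (Hs27A), adrenal (HADF) and skin (WS1), plus mammary HMF and breast cancer-associated Hs343T. Cancer cells are basal-like or mesenchymal-like triple-negative breast cancer lines. A hit is a response shift exceeding 3x replicate standard deviation. The tissue of the other fibroblasts is not given here.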

Test system: BT20
Assay: relative JC-1 red fluorescence (viability) vs pre-drug, coculture with fibroblast (fraction); higher = more viable cancer cells
Details: 10 µM
Experimental: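 JC-1 labelled TNBC cells cocultured 1:1 (1,500 cells each) with CellTrace Violet stained primary or stromal fibroblasts in 384-well plates in FluoroBrite medium, treated with one of 42 anticancer drugs at 0.1, 1, 10 or 100 uM. JC-1 red fluorescence (mitochondrial integrity in cancer cells only) was read by plate reader every 8 h for 72 h. Values are normalised to each well's pre-drug value. The stock of one drug was tenfold lower, so its dose labels may be too high.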

O=C(CCCCCCC(=O)Nc1ccccc1)NO [Vorinostat]
relative JC-1 red fluorescence
Details	8 h	16 h	24 h	32 h	40 h	48 h	56 h	64 h	72 h
coculture fibroblast: C12385	0.915 ± 0.022	0.818 ± 0.019	0.776 ± 0.029	0.678 ± 0.041	0.581 ± 0.057	0.535 ± 0.062	0.5 ± 0.061	0.468 ± 0.06	0.445 ± 0.065
coculture fibroblast: H6013	0.9399 ± 0.0088	0.842 ± 0.016	0.749 ± 0.049	0.677 ± 0.055	0.64 ± 0.049	0.629 ± 0.025	0.636 ± 0.022	0.627 ± 0.017	0.6393 ± 0.0025
coculture fibroblast: H6019	0.872 ± 0.01	0.79 ± 0.015	0.778 ± 0.029	0.72 ± 0.044	0.656 ± 0.055	0.622 ± 0.088	0.592 ± 0.097	0.584 ± 0.11	0.586 ± 0.11
coculture fibroblast: H6076	0.928 ± 0.079	0.875 ± 0.026	0.781 ± 0.039	0.724 ± 0.029	0.648 ± 0.0077	0.614 ± 0.01	0.602 ± 0.01	0.598 ± 0.0086	0.569 ± 0.02
coculture fibroblast: H6231	0.803 ± 0.15	0.911 ± 0.0092	0.756 ± 0.035	0.671 ± 0.059	0.617 ± 0.07	0.567 ± 0.086	0.538 ± 0.084	0.508 ± 0.085	0.484 ± 0.086
coculture fibroblast: HADF	0.842 ± 0.047	0.8749 ± 0.0054	0.83 ± 0.0086	0.763 ± 0.043	0.723 ± 0.046	0.685 ± 0.047	0.676 ± 0.052	0.673 ± 0.047	0.638 ± 0.051
coculture fibroblast: HCFa	0.918 ± 0.016	0.85 ± 0.028	0.824 ± 0.044	0.698 ± 0.056	0.593 ± 0.029	0.5585 ± 0.0052	0.5616 ± 0.0035	0.55778 ± 0.00055	0.557 ± 0.012
coculture fibroblast: HCPF	0.876 ± 0.16	0.8788 ± 0.0038	0.781 ± 0.0091	0.702 ± 0.013	0.64 ± 0.019	0.58 ± 0.015	0.535 ± 0.016	0.521 ± 0.023	0.486 ± 0.023
coculture fibroblast: HHSteC	0.9141 ± 0.0089	0.835 ± 0.025	0.8129 ± 0.0061	0.7056 ± 0.004	0.66 ± 0.018	0.615 ± 0.028	0.599 ± 0.037	0.585 ± 0.051	0.57 ± 0.053
coculture fibroblast: HMF	0.874 ± 0.15	0.896 ± 0.036	0.7631 ± 0.0054	0.6703 ± 0.0051	0.548 ± 0.013	0.471 ± 0.025	0.421 ± 0.024	0.385 ± 0.023	0.353 ± 0.03
coculture fibroblast: HPFa	0.945 ± 0.0096	0.8331 ± 0.0059	0.79 ± 0.0056	0.6897 ± 0.004	0.636 ± 0.015	0.581 ± 0.0065	0.5517 ± 0.003	0.535 ± 0.012	0.516 ± 0.013
coculture fibroblast: HUF	0.9152 ± 0.0033	0.791 ± 0.0089	0.734 ± 0.065	0.617 ± 0.12	0.528 ± 0.17	0.49 ± 0.18	0.473 ± 0.18	0.464 ± 0.19	0.455 ± 0.2
coculture fibroblast: Hs5	0.716 ± 0.015	0.927 ± 0.031	0.7935 ± 0.0015	0.721 ± 0.017	0.642 ± 0.038	0.589 ± 0.042	0.553 ± 0.059	0.53 ± 0.056	0.515 ± 0.053
coculture fibroblast: Hs27A	0.756 ± 0.068	0.835 ± 0.066	0.826 ± 0.089	0.944 ± 0.076	0.80935 ± 0.00051	0.748 ± 0.04	0.823 ± 0.079	0.727 ± 0.038	0.78 ± 0.096
coculture fibroblast: Hs343T	0.942 ± 0.012	0.835 ± 0.037	0.729 ± 0.049	0.667 ± 0.067	0.61 ± 0.077	0.573 ± 0.082	0.526 ± 0.097	0.513 ± 0.12	0.477 ± 0.12
coculture fibroblast: WS1	0.8496 ± 0.0039	0.747 ± 0.021	0.686 ± 0.034	0.6 ± 0.064	0.517 ± 0.063	0.46 ± 0.07	0.411 ± 0.068	0.381 ± 0.071	0.364 ± 0.073
